Some of these results come from one statement about several compounds together.
Test system: Wild-type N2 C. elegans worms
Test: Nile Red staining of fat accumulation in wild-type N2 C. elegans
Assay type: in vivo
Conditions: 10, 50 and 100 μM tested, 48 hours
Procedure: Wild-type N2 C. elegans worms were grown on OP50 bacteria and exposed overnight to vehicle (0.1% ethanol) alone or with 10, 50 or 100 μM of resveratrol (in ethanol). Fat accumulation was visualized with Nile Red staining, as described further below and in Ashrafi K, et al. Nature 421:268-27 (2003).
Synchronized starved L1 worms were grown in the presence of Nile Red. Strains were grown on NGM plates at 25° C. for approximately 48 hours until the young adult stage was reached. 20-30 young adult worms were then washed 2× with M9 buffer and transferred to new NGM/Nile red experimental plates that contained either OP50 or HTT5 E. coli carrying the L4440 RNAi control vector. For experiments comparing the effect of nicotinamide and resveratrol on fat mobilization, OP50 plates were coated with vehicle alone or Nicotinamide (in PBS), or vehicle alone and Resveratrol (in Ethanol or DMSO).
Resveratrol (Indofine #024964) was dissolved in Ethanol or DMSO to a 10 mM stock solution. […]
Nile Red: Nile Red Powder (Sigma #N-3013) was dissolved in acetone at 500 μg/ml, diluted in 1× Phosphate Buffered Saline (PBS) including appropriate drug and applied to surface of Nematode Growth Media (NGM) plates previously seeded with OP50 or RNAi bacteria, at a final concentration of 0.05 μg/ml. Fat content was monitored and recorded by fluorescence microscopy. […]

## O=c1c(O)c(-c2ccc(O)c(O)c2)oc2cc(O)ccc12 [fisetin, 3,7,3′,4′-Tetrahydroxyflavone]
  concentrations at which fat accumulation is reduced (as low as): ≤ 10 µM

## O=c1c(O)c(-c2ccc(O)c(O)c2)oc2cc(O)cc(O)c12 [quercetin, 3,5,7,3′,4′-Pentahydroxyflavone]
  concentrations at which fat accumulation is reduced (as low as): ≤ 10 µM
